Measured values reported in paper PMC7603486.

The chains behind the UniProt entries cited, without tags or fusion partners. Where a name states a change or a piece, a line headed by the entry shows the natural chain unless it says otherwise.
UniProt Q6IQ49: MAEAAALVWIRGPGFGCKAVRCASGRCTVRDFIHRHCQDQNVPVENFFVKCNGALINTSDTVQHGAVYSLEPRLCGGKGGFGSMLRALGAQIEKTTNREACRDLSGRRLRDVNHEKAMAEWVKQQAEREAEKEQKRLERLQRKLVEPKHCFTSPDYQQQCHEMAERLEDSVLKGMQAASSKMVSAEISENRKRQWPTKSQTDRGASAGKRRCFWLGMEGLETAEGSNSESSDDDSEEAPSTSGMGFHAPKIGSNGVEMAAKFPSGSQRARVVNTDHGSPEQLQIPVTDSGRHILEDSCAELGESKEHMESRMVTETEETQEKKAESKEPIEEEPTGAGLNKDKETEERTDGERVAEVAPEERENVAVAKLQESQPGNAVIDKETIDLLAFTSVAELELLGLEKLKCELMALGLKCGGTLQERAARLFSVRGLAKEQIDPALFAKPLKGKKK
UniProt Q9UNS1: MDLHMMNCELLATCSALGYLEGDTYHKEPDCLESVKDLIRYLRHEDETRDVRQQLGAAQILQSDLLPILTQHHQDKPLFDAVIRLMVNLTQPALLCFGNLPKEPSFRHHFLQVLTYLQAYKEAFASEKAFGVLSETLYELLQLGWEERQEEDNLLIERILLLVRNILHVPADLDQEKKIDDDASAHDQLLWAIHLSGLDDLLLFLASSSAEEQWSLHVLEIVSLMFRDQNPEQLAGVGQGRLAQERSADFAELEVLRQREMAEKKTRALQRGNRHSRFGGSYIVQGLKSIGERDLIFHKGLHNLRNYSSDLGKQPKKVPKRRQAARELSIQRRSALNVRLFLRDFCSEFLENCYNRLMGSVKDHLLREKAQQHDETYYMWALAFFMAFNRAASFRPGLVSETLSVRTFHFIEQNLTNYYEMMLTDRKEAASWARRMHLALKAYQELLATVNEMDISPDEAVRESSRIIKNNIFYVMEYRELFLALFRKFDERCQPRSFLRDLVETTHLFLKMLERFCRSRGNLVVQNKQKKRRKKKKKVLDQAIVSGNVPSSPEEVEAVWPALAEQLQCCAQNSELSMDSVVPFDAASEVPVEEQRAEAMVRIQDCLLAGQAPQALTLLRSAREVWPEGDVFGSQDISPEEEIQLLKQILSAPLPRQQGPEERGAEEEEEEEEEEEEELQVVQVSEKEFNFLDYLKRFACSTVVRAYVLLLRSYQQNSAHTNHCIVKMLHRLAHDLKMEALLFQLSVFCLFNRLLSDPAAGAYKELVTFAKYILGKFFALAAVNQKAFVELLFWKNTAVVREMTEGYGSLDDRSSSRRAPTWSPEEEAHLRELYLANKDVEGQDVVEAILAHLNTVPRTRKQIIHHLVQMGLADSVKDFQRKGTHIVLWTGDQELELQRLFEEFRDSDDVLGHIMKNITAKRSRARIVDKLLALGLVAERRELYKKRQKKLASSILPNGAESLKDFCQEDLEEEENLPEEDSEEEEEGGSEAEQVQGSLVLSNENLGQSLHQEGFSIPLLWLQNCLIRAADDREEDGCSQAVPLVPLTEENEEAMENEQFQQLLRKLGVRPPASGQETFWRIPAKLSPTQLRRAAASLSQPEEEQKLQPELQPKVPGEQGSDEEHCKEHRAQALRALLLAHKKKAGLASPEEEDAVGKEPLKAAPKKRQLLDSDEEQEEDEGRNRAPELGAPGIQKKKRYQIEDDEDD

Assays:
[1] = target: SDE2, endogenous (human (endogenous in U2OS and HEK293T)) (UniProt Q6IQ49); test: co-IP; endogenous proteins in U2OS cells, IP with an SDE2 antibody (vs. rabbit IgG control)
[2] = target: Flag-TIM Δ882-1208 (ΔC1) (human) (UniProt Q9UNS1); test: co-IP; anti-Flag co-IP (anti-FLAG M2 affinity gel) from transfected HEK293T lysates, NETN150 buffer, 4 h at 4 °C
[3] = target: Flag-TIM (pcDNA4-Flag-TIMELESS-myc-6xHis) (human) (UniProt Q9UNS1); test: as above
[4] = target: GST-SDE2, recombinant (human) (UniProt Q6IQ49); test: pull-down; purified GST-SDE2 (or GST) on glutathione sepharose beads incubated with in vitro translated (IVTT) products, 4 h at 4 °C; only the target purified
[5] = target: GST-SDE2, recombinant (human) (UniProt Q6IQ49); test: pull-down; purified GST-SDE2 (or GST) on glutathione sepharose beads incubated with 293T cell lysates, 4 h at 4 °C; only the target purified

- binding [1]: binds
Substance: TIMELESS (TIM), endogenous (from UniProt Q9UNS1 1-1208)

- binding [2]: no binding
- binding [3]: binds
Substance: SDE2, endogenous (from UniProt Q6IQ49)

- binding [4]: no binding
Substance: TIM-myc ΔC1 mutant, in vitro transcribed and translated (IVTT) (from UniProt Q9UNS1 1-881) (domain or fragment)

- binding [4]: binds
Substance: TIM-myc WT, in vitro transcribed and translated (IVTT) (from UniProt Q9UNS1 1-1208)

- binding [5]: binds
Substance: TIM C-terminus (Ct; aa882-1208)-myc, expressed in 293T cells (from UniProt Q9UNS1 882-1208) (domain or fragment)

- binding [4]: binds
Substance: TIM C-terminus, in vitro translated (from UniProt Q9UNS1 882-1208) (domain or fragment)

- binding [5]: binds
Substance: Flag-TIM (pcDNA4-Flag-TIMELESS-myc-6xHis) (from UniProt Q9UNS1 1-1208)

No constants are given. Whether binding was seen depends on the method and setting. In cells and extracts the contact can be indirect. For some assays here: A result given as binding can be weak or reduced; the word gives no strength. One block for each substance: values may come before it.
